Among the data in publication PMC9176654 are binding values, retold here.

Protein sequences, listed by entry. Tags and fused reporters are not part of them.
UniProt P0DTC3: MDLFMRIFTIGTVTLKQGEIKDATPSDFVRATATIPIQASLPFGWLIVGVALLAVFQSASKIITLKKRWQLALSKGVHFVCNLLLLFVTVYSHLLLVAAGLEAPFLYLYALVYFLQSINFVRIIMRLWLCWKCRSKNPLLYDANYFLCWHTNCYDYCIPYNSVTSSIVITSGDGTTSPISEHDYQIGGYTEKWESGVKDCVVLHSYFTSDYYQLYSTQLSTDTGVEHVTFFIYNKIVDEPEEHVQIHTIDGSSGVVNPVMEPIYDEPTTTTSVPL

Results are given in words; binding and its absence hold for the method and conditions named. In cells and extracts the contact can be indirect. A yes stands for co-enrichment or nearness to the bait. Other partners may have been found.

This test deals with SARS-CoV-2 accessory protein ORF3a (SARS-CoV-2) (UniProt P0DTC3). Put plainly: two-hybrid + affinity purification with mass spectrometry.

B1: ZNF579 (protein, UniProt Q8NAF0 1-562)
chain: MDPQPPPPAQGSPPHRGRGRGRGRGRGRGRGRGRGGAGAPRAPLPCPTCGRLFRFPYYLSRHRLSHSGLRPHACPLCPKAFRRPAHLSRHLRGHGPQPPLRCAACPRTFPEPAQLRRHLAQEHAGGEVELAIERVAKETAEPSWGPQDEGSEPPTTAAAGATEEEAVAAWPETWPAGEPSTLAAPTSAAEPRESESEEAEAGAAELRAELALAAGRQEEKQVLLQADWTLLCLRCREAFATKGELKAHPCLRPEGEQEGEGGPPPRPKRHQCSICLKAFARPWSLSRHRLVHSTDRPFVCPDCGLAFRLASYLRQHRRVHGPLSLLAPLPAAGKKDDKASGARNSAKGPEGGEGAECGGASEGGEGQNGGDAAPARPPAGEPRFWCPECGKGFRRRAHLRQHGVTHSGARPFQCVRCQREFKRLADLARHAQVHAGGPAPHPCPRCPRRFSRAYSLLRHQRCHRAELERAAALQALQAQAPTSPPPPPPPLKAEQEEEGLPLPLANIKEEPPSPGTPPQSPPAPPVFLSASCFDSQDHSAFEMEEEEVDSKAHLRGLGGLAS
Consider B1, for which the binding result is given as “binds”.
